A short description of the test: qHTS Assay for Lipid Storage Modulators in Drosophila S3 Cells.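 On cell number change: cells counted by Cell Tracker Red CMTPX staining in the red channel.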 The note with it: BODIPY lipid droplet fluorescence, 18-24 h; for cell number change: measured here: cell count max response, cells fed with added oleic acid. The procedure, abridged:
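Drosophila S3 cells loaded with oleic acid (400 uM, as added) and compounds at several concentrations; lipid droplets imaged by 488-nm laser-scanning cytometry, 500–530 nm intensity and object ratio to cell channel. Percent activity normalized to 20 uM Triacsin C.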
(In qHTS, concentration-response curves come from the screen itself.)

Setting [1] is: measured here: cell number channel AC50, cells fed with added oleic acid.
[2] abbreviates: measured here: lipid fluorescence (Fed channel) AC50, cells fed with added oleic acid.

This is one part of the list. These are further read-outs of the screen, such as a control signal, another cell line or another target. No call is given for them. Most of these compounds were active or inconclusive in the main read-out, so they are no random draw. Potencies come from curve fits of mixed quality, noted in brackets.

One may read the AC50 as the concentration giving half of the maximal activity seen. High values mean weaker potency, low ones greater potency. As for `Cc1ccc(Cn2c(SCCN3CCCCC3)nc3c2c(=O)n(C)c(=O)n3C)cc1`, the cell number change is -15.7%. Besides, the AC50 under setting [1] is 0.146 µM [falling, full curve, poor fit]. For the same compound, the AC50 under setting [2] was 20.6 µM [rising, single point].

Consider `CC(NC(=O)CN1C(=O)NC2(CCc3ccccc32)C1=O)c1ccccc1` (centres undefined), for which the cell number change was -6.01%. The AC50 under setting [2] is 20.6 µM [rising, single point].

Consider `CCS(=O)(=O)N(CC(=O)Nc1cccc2ccccc12)c1ccc(OC)cc1`, for which the cell number change is -14.5%. Under setting [2], the AC50 was 0.092 µM [falling, full curve, poor fit].

Regarding `CN(C)C(CNC(=O)CNC(=O)Cc1cccc2ccccc12)c1ccccc1` (centres undefined), the cell number change came to 0.952%.

For the compound `Cn1cc(-c2ccccc2C(N)=O)c(=O)c2cc(Cl)ccc21`, the cell number change was 13.4%. For the same compound, the AC50 under setting [2] was 32.6 µM [rising, single point].

Take `COc1cc(OC)c(OC)cc1/C=N/N(C)c1ccccc1`: the cell number change is 5.9%. The AC50 under setting [2] is 2.59 µM [rising, partial curve].

As to `COc1ccc(OC)c2c1C(=O)C(Cl)=C(Cl)C2=O`, the cell number change is -64.2%. Under setting [1], the half-maximal activity concentration (AC50) was 18.4 µM [falling, partial curve, poor fit]. Also, the AC50 under setting [2] was 3.66 µM [falling, partial curve].

With `O=C(COC(=O)CN1C(=O)C2CCCCC2C1=O)NNC(=O)c1ccc(Cl)cc1` (centres undefined), the cell number change was 25%. The AC50 under setting [1] is 7.31 µM [falling, single point].

Turning to `Cc1ccc(NC(=O)CN2CCCCCC2)cc1[N+](=O)[O-]`, the cell number change stood at 24.3%. Under setting [2], the AC50 is 2.06 µM [rising, partial curve].

Take `Cc1ccc(S(=O)(=O)Nc2ccccc2/C=N/c2nc3ccccc3n2C(C)C)cc1`: the cell number change was -24.1%.

As to `COc1ccc(C2C(C(C)=O)=C(O)C(=O)N2c2ccc(Br)cc2)cc1` (centres undefined), the cell number change was found to be 15.1%. The AC50 under setting [2] is 6.51 µM [rising, single point].

For `Cc1oc(-c2ccc(Cl)cc2)nc1CS(=O)CC(=O)NCCCN(C)C1CCCCC1` (centres undefined), the cell number change is -98.6%. In addition, under setting [1], the AC50 is 9.2 µM [falling, partial curve]. Also, the AC50 under setting [2] is 0.00461 µM [falling, full curve, poor fit].

For `COc1ccc(NS(=O)(=O)c2ccc(NC(=S)NC(=O)c3cccnc3)cc2)nn1`, the cell number change was -27.3%. For the same compound, the AC50 under setting [1] was 0.461 µM [falling, full curve, poor fit]. Also, the AC50 under setting [2] is 0.259 µM [falling, full curve].

Take `O=C1CN(C(=O)c2ccccc2F)C(c2ccc(F)cc2)c2cc(F)ccc2N1` (centres undefined): the cell number change was found to be 0.826%. The AC50 under setting [2] is 16.4 µM [rising, partial curve].

Consider `COCc1cc(C)nc2sc(C(=O)Nc3ccccc3C)c(N)c12`, for which the cell number change was -14.4%.

Take `O=c1c(Cl)c(Cl)cnn1Cc1nnc(-c2ccc(Cl)cc2)o1`: the cell number change was -24.3%. Moreover, the AC50 under setting [2] was 11.6 µM [falling, partial curve].

For the compound `O=C(Nc1ccn(Cc2c(F)c(F)c(F)c(F)c2F)n1)c1cccc(Cn2cc([N+](=O)[O-])cn2)c1`, the cell number change was -0.527%.

`Cc1cc(C)c(S(=O)(=O)NCCc2ccncc2)c(C)c1`: the cell number change is 16.3%. For the same compound, the AC50 under setting [2] is 2.59 µM [rising, full curve, poor fit].

In the case of `COc1cccc(C(=O)N/N=C/C(Br)=C/c2ccccc2)c1`, the cell number change was -1.56%. Further, under setting [2], the AC50 was 29.1 µM [falling, partial curve, poor fit].

On to `O=C(O)c1cc(S(=O)(=O)NCc2ccco2)c(Cl)cc1Cl`, for which the cell number change turned out to be 14%. Besides, the AC50 under setting [2] was 2.91 µM [rising, single point].

Take `CC(=O)C(C)Oc1ccc(Cc2ncc(C(F)(F)F)cc2Cl)cc1` (centres undefined): the cell number change is -4.78%.

For `C[C@H](NC(=O)c1nc[nH]c1C(=O)NCc1ccccc1)c1ccccc1`, the cell number change is -30.8%. In addition, the AC50 under setting [1] is 11.6 µM [falling, single point].

Consider `Cc1ccc(S(=O)(=O)Nc2c(C)n(C)n(-c3ccccc3)c2=O)c(C)c1`, for which the cell number change is -9.85%. For the same compound, the AC50 under setting [2] was 0.651 µM [rising, full curve].

Consider `CCSC1(SCC)N=C(N)C2(C#N)C(c3ccc(OC)c(OC)c3OC)C12C#N` (centres undefined), for which the AC50 under setting [2] was 0.146 µM [rising, full curve].

Regarding `Cc1ccccc1OCC(=O)Nc1ccc(N2CCN(C(=O)C(C)C)CC2)c(Cl)c1`, the cell number change is -27.5%.

With `COc1ccc(C2(C(=O)Nc3ccc(OC)cc3OC)CCCC2)cc1`, the cell number change is -17.8%. Moreover, under setting [2], the AC50 was 29.1 µM [rising, single point].

Regarding `COc1cc(NC(=O)CSc2nc3[nH]c(=O)cc(O)c3s2)cc(OC)c1OC`, the cell number change was -29.9%. In addition, the half-maximal activity concentration (AC50) under setting [2] was 0.82 µM [falling, partial curve, poor fit].

On to `CSCCC(NC(=O)C1CC1)c1nc2ccccc2[nH]1` (centres undefined), for which the cell number change was found to be 1.07%. Besides, the concentration at half-maximal activity (AC50) under setting [2] was 0.058 µM [falling, full curve, poor fit].

For `CC12CCC(=O)N1C(C(=O)Nc1cccc(S(=O)(=O)N3CCCCCC3)c1)CS2` (centres undefined), the cell number change was -44.7%. Moreover, the AC50 under setting [1] is 13 µM [falling, partial curve, poor fit].

On to `CCOc1ccc(-c2ccc(SCc3ccccn3)nn2)cc1`, for which the cell number change is 40.4%. The AC50 under setting [1] was 29.1 µM [rising, single point].

As for `COCc1cc(N2CCN(c3ccccc3F)CC2)nc(-c2ccccc2)n1`, the cell number change was -68.9%. Under setting [1], the AC50 was 29.1 µM [falling, single point].

For the compound `COc1ccc(C(=O)Nc2ccc(C3(C#N)CCCC3)cc2)cc1OC`, the cell number change turned out to be 5.84%.

`Cc1ccc(S(=O)(=O)Nc2cccnc2)cc1C`: the cell number change is -4.23%. The AC50 under setting [2] is 3.26 µM [rising, full curve, poor fit].

Consider `CN(C)C=Nc1ncc2c3ccccc3n(Cc3ccccc3)c2c1C#N`, for which the AC50 reads like this: under setting [1], 2.31 µM [rising, single point]; under setting [2], 4.11 µM [rising, single point].

As for `CC(=O)N(Cc1ccc(Cl)cc1)c1cnccn1`, the cell number change is 30.4%. Besides, the AC50 under setting [1] was 5.17 µM [rising, full curve, poor fit].

For the compound `COc1ccccc1C/C(N)=N/OC(=O)COc1cccc(C)c1C`, the cell number change worked out at 12.3%.

With `CCOc1ccc(CCNC(=O)COC(=O)c2ccc(S(=O)(=O)N3CCCC3)cc2)cc1OCC`, under setting [1], the AC50 is 6.51 µM [rising, single point].

As for `CCOc1cc(/C=N/N=C(\N)c2nonc2N)cc(Br)c1OCc1cccc2ccccc12`, the cell number change was -83.4%. Further, under setting [1], the AC50 is 29.1 µM [falling, single point]. Also, the half-maximal activity concentration (AC50) under setting [2] is 11.6 µM [falling, single point].

For `COc1ccc(CNC(=S)Nc2cccc(OC)c2)cc1`, the cell number change was -20.9%. Also, under setting [2], the AC50 was 23.1 µM [rising, single point].

`CC(=O)N1CCN(c2ccc(N)cc2)CC1`: the cell number change worked out at 1.32%. In addition, under setting [2], the AC50 was 4.11 µM [rising, full curve, poor fit].

Take `COc1ccc(CCNC2CC(C)N(C)CC2C)cc1OC` (centres undefined): the cell number change is -21.8%. The AC50 under setting [1] is 0.411 µM [falling, full curve, poor fit]. Also, the AC50 under setting [2] is 4.11 µM [falling, full curve, poor fit].

In the case of `COc1cccc(CNC(=O)N2CCN(c3ccccc3)CC2)c1`, the cell number change came out at 9.91%. In addition, the AC50 under setting [2] is 0.00517 µM [rising, full curve, poor fit].

As for `CC1CCCCN1CC(=O)NCc1ccc2c(c1)OCO2` (centres undefined), the cell number change came to 31.3%. Moreover, under setting [1], the AC50 is 11.6 µM [rising, partial curve, poor fit].

As to `CCOc1cc(CN2CCC(n3nccc3NC(=O)C3CC3)CC2)ccc1O`, the cell number change was -32.6%. The AC50 under setting [1] was 23.1 µM [falling, single point].

With `CN(Cc1ccccc1)C(=O)c1ncn(C)c1C(=O)N(C)Cc1ccccc1`, the cell number change is -8.66%. For the same compound, under setting [2], the AC50 is 0.184 µM [rising, full curve, poor fit].

On to `CCc1ccc(NC(=O)CSc2nc3n[nH]c(C)c3c(=N)n2-c2cccc(OC)c2)cc1`, for which the cell number change was -15%. Also, the AC50 under setting [2] is 29.1 µM [falling, single point].

On to `COc1ccc(C(=O)NC(=O)COC(=O)CCS(=O)(=O)c2ccc(C)cc2)cc1`, for which the cell number change is -22.5%.

For the compound `O=[N+]([O-])c1cc([N+](=O)[O-])c(Oc2c(F)cc(F)cc2F)cc1NN1CCCCC1`, the cell number change came to 15.2%.

For the compound `CC(NC(=O)CNC(=O)c1ccccc1F)c1ccc(-n2ccnc2)cc1` (centres undefined), the cell number change is 2%. For the same compound, the AC50 under setting [1] is 6.51 µM [rising, single point]. Also, the half-maximal activity concentration (AC50) under setting [2] is 0.00461 µM [falling, full curve, poor fit].

Take `c1ccc(CNc2nc(-c3cccnc3)nc3ccccc23)cc1`: the AC50 under setting [2] is 32.6 µM [falling, partial curve, poor fit].

On to `CC1(C)CC(=O)C2=C(C1)NC(=O)NC2c1ccc(Cl)cc1` (centres undefined), for which the cell number change is -18.4%.

As for `O=C(CSc1nnc(CNC(=O)c2ccc(F)cc2)o1)NCc1ccccc1Cl`, the cell number change is -53.2%. For the same compound, the AC50 under setting [1] is 11.6 µM [falling, partial curve]. Moreover, the AC50 under setting [2] was 23.1 µM [falling, partial curve].

With `Cc1ccc(CNC(=O)CSc2nnc3c(n2)[nH]c2ccc(F)cc23)cc1`, the AC50 under setting [2] is 0.116 µM [rising, full curve, poor fit].

Regarding `Cc1ccccc1OCC(O)CN(CCO)Cc1ccccc1` (centres undefined), the cell number change came to 9.11%. Besides, the AC50 under setting [2] is 0.0058 µM [falling, full curve, poor fit].

Consider `CCN1CCN(C(=O)c2cccc(OC3CCN(S(=O)(=O)N(C)C)CC3)c2)CC1`, for which the cell number change was -15.2%. Under setting [2], the half-maximal activity concentration (AC50) was 2.59 µM [falling, partial curve, poor fit].

Consider `CCN=C1SC(CC(=O)Nc2ccccc2OCC)C(=O)N1CC` (centres undefined), for which the cell number change was 44.1%. Further, the concentration at half-maximal activity (AC50) under setting [1] is 29.1 µM [rising, single point].

Regarding `Cc1ccc(NC(=O)CCn2nnc3ccccc32)cc1`, the cell number change was determined as 8.54%. Besides, the AC50 under setting [2] is 0.116 µM [rising, full curve].

As for `CCc1ccc(Nc2cnn(-c3nc4ccccc4s3)c(=O)c2Cl)cc1`, the cell number change was 32.2%. Also, the AC50 under setting [1] was 1.64 µM [rising, partial curve]. Besides, the AC50 under setting [2] was 1.84 µM [rising, full curve, poor fit].

For the compound `CCOC(=O)CCCc1ccc(/C(C)=N/NC(N)=S)cc1`, the cell number change was -44%. Further, the AC50 under setting [1] is 16.4 µM [falling, partial curve]. Also, under setting [2], the concentration at half-maximal activity (AC50) is 8.2 µM [falling, partial curve].

Take `O=C(NCCCn1ccnc1)c1ccc(S(=O)(=O)N2CCOCC2)cc1`: the cell number change came to 14.1%.

The values above are taken from PubChem BioAssay AID2685 (National Center for Advancing Translational Sciences (NCATS), 2010).
